PubChem BioAssay AID504791, Drosophila RNAi Screening Center | 2011
The deposit covers about 23,000 reagents; this is a random part of those that have a named target and a result. Over the whole deposit, 199 (0.86%) got an active call. 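Plate-scaled ratios behind the calls are not deposited; printed light signals are raw; many rows marked increased or decreased are still called inactive.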 Reagents against one gene are numbered here. A plus sign joins genes that one reagent is predicted to hit. Not stated in the record: the direction of the score.

Aim: 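Genes whose knock-down strengthens or weakens small-RNA reporter silencing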 (primary screen)
Cell system: Drosophila S2-derived reporter cells
Reagent: long dsRNA against Drosophila genes, about 150-250 ng dsRNA per well (siRNA assay); about 80-120 ng (miRNA assay)
Duration: about 5 days (siRNA assay); about 4 days (miRNA assay)
Treatment: copper sulfate induction of reporters: 25 µM (siRNA assay); 200 mM stated (miRNA assay), 1-2 days before reading
Measurement: 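Dual luciferase assay: Renilla to firefly signal ratio in each well, scaled to the mean ratio of its plate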
Active means: 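a well was a first-pass pick when its plate-scaled ratio rose above 1.5 (siRNA assay) or 1.6 (miRNA assay), or dropped below 0.6; a gene counted only if two separate dsRNAs agreed on retest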

| gene | dsRNA no. | stable siRNA reporter change | miRNA reporter change | stable assay Renilla, run 1 (luminescence) | stable assay firefly, run 1 (luminescence) | outcome |
| --- | --- | --- | --- | --- | --- | --- |
| TotX (Turandot X) | 1 | reporter ratio raised past the hit cutoff | – | 9517 | 2.89e5 | inactive |
| kn (knot) | 1 | – | – | 6520 | 3.98e5 | inactive |
| kn (knot) | 2 | – | – | 6626 | 4.92e5 | inactive |
| kn (knot) | 3 | – | – | 7390 | 3.58e5 | inactive |
| kn (knot) | 4 | – | – | 7056 | 4.34e5 | inactive |
| kn (knot) | 5 | – | – | 8390 | 4.15e5 | inactive |
| CG4017 | 1 | – | – | 7206 | 3.28e5 | inactive |
| Smyd4-4 (SET and MYND domain containing, class 4, member 4) | 1 | – | – | 9037 | 4.30e5 | inactive |
| CG33460 | 1 | – | – | 7142 | 4.52e5 | inactive |
| CG12655 | 1 | – | reporter ratio raised past the hit cutoff | 5275 | 3.81e5 | inactive |
| CG5687 | 1 | – | – | 11761 | 4.40e5 | inactive |
| beat-VI (beaten path VI) | 1 | – | – | 6464 | 3.92e5 | inactive |
| beat-VI (beaten path VI) | 2 | – | – | 7035 | 3.96e5 | inactive |
| ApepP (Aminopeptidase P) | 1 | – | – | 8400 | 2.22e6 | inactive |
| CG5084 | 1 | – | – | 6135 | 4.04e5 | inactive |
| CG42561 | 1 | – | – | 6143 | 3.25e5 | inactive |
| CG17600 | 1 | – | – | 4523 | 3.66e5 | inactive |
| CG17600 | 2 | – | – | 6040 | 4.06e5 | inactive |
| CG17600 | 3 | – | – | 3823 | 3.42e5 | inactive |
| CG30430 | 1 | – | – | 10476 | 8.79e5 | inactive |
| CG15347 | 1 | – | – | 6194 | 3.09e5 | inactive |
| CG33339 | 1 | – | – | 2687 | 2.94e5 | inactive |
| Ten-a (Tenascin accessory) | 1 | – | – | 5279 | 4.15e5 | inactive |
| Ten-a (Tenascin accessory) | 2 | – | – | 4923 | 2.93e5 | inactive |
| Ten-a (Tenascin accessory) | 3 | – | – | 4451 | 3.56e5 | inactive |
| Ten-a (Tenascin accessory) | 4 | – | – | 5070 | 4.09e5 | inactive |
| Ten-a (Tenascin accessory) | 5 | – | – | 4707 | 4.05e5 | inactive |
| Ten-a (Tenascin accessory) | 6 | – | – | 5278 | 4.34e5 | inactive |
| Ten-a (Tenascin accessory) | 7 | – | – | 4452 | 3.69e5 | inactive |
| Ten-a (Tenascin accessory) | 8 | – | reporter ratio raised past the hit cutoff | 11600 | 5.33e5 | inactive |
| Ten-a (Tenascin accessory) | 9 | – | – | 5248 | 3.96e5 | inactive |
| tsu (tsunagi) | 1 | – | – | 9217 | 5.39e5 | inactive |
| NO66 (Nucleolar protein 66) | 1 | – | – | 7290 | 4.72e5 | inactive |
| Pgi (Phosphoglucose isomerase) | 1 | – | – | 6939 | 3.80e5 | inactive |
| Svip (small VCP interacting protein) | 1 | – | – | 3807 | 3.26e5 | inactive |
| Pcmt (Protein-L-isoaspartate (D-aspartate) O-methyltransferase) | 1 | – | – | 7259 | 4.62e5 | inactive |
| CG18747 | 1 | – | – | 7088 | 4.48e5 | inactive |
| Pex5 (Peroxin 5) | 1 | – | – | 7818 | 4.27e5 | inactive |
| CG44001 + CG33995 | 1 | – | – | 6063 | 3.79e5 | inactive |
| CG44001 + CG33995 | 2 | – | – | 13079 | 4.63e5 | inactive |
| CG31534 (retired record) | 1 | – | – | 10307 | 4.84e5 | inactive |
| CG31534 (retired record) | 2 | – | – | 6946 | 3.68e5 | inactive |
| PolQ (DNA polymerase theta) | 1 | – | reporter ratio lowered past the hit cutoff | 5535 | 4.21e5 | inactive |
| Cc2d2a (Coiled-coil and C2 domain containing 2A) | 1 | – | – | 6450 | 3.13e5 | inactive |
| Cc2d2a (Coiled-coil and C2 domain containing 2A) | 2 | – | – | 6163 | 2.88e5 | inactive |
| asf1 (anti-silencing factor 1) | 1 | – | – | 7802 | 4.60e5 | inactive |
| mRpS18B (mitochondrial ribosomal protein S18B) | 1 | – | – | 7718 | 2.28e6 | inactive |
| CG7406 | 1 | – | – | 6043 | 5.40e5 | inactive |
| CG7406 | 2 | – | reporter ratio raised past the hit cutoff | – | – | inactive |
| CG13445 | 1 | – | – | 8761 | 5.51e5 | inactive |
| fbp (fructose-1,6-bisphosphatase) | 1 | – | – | 1.13e5 | 1.92e6 | inactive |
| CG10943 | 1 | – | – | 7206 | 4.28e5 | inactive |
| CG13731 | 1 | – | – | 7139 | 4.49e5 | inactive |
| CG9173 | 1 | – | – | 5999 | 4.23e5 | inactive |
| lz (lozenge) | 1 | – | – | 5510 | 3.64e5 | inactive |
| lz (lozenge) | 2 | – | – | 8418 | 4.52e5 | inactive |
| CG4073 | 1 | – | – | 7222 | 3.73e5 | inactive |
| Gr39a (Gustatory receptor 39a) | 1 | – | – | 7343 | 5.56e5 | inactive |
| Gr39a (Gustatory receptor 39a) | 2 | – | – | 8191 | 5.79e5 | inactive |
| CG12158 | 1 | – | – | 5722 | 6.30e5 | inactive |
| CG33340 | 1 | – | – | 8118 | 4.01e5 | inactive |
| CG10366 | 1 | – | – | 55962 | 1.81e6 | inactive |
| SoYb | 1 | – | – | 7390 | 4.45e5 | inactive |
| CG1636 | 1 | – | – | 4870 | 3.81e5 | inactive |
| Cdk5 (Cyclin-dependent kinase 5) | 1 | – | – | 11832 | 4.47e5 | inactive |
| CG31272 | 1 | – | – | 6612 | 3.67e5 | inactive |
| CG8230 | 1 | – | – | 5710 | 2.96e5 | inactive |
| CG5516 | 1 | – | – | 6814 | 4.40e5 | inactive |
| CG5516 | 2 | – | – | 8778 | 6.19e5 | inactive |
| fand (fandango) | 1 | – | – | 9305 | 6.79e5 | inactive |
| CG32087 | 1 | – | – | 5292 | 3.41e5 | inactive |
| CG13872 | 1 | – | – | 6451 | 3.14e5 | inactive |
| CG31909 | 1 | – | – | 9183 | 6.11e5 | inactive |
| CG13251 | 1 | – | – | 6975 | 3.65e5 | inactive |
| CG30178 | 1 | – | – | 7643 | 4.18e5 | inactive |
| CG42535 | 1 | – | – | 4683 | 3.73e5 | inactive |
| CG13048 | 1 | – | – | 7179 | 3.70e5 | inactive |
| EMC10 (ER membrane protein complex subunit 10) | 1 | – | – | 8086 | 5.53e5 | inactive |
| Aasdh (Aminoadipate-semialdehyde dehydrogenase) | 1 | – | – | 8615 | 4.27e5 | inactive |
| Cdk8 (Cyclin-dependent kinase 8) | 1 | – | – | 7535 | 3.99e5 | inactive |
| RtGEF (Rho-type guanine nucleotide exchange factor) | 1 | – | – | 7204 | 5.53e5 | inactive |
| RtGEF (Rho-type guanine nucleotide exchange factor) | 2 | – | – | 9153 | 5.14e5 | inactive |
| Vps4 (Vacuolar protein sorting 4) | 1 | – | – | 6386 | 3.52e5 | inactive |

Reprinted from the listing (13 entries):
| gene | dsRNA no. | stable siRNA reporter change | miRNA reporter change | stable assay Renilla, run 1 (luminescence) | stable assay firefly, run 1 (luminescence) | outcome |
| --- | --- | --- | --- | --- | --- | --- |
| CG4017 | 1 | – | – | 7206 | 3.28e5 | inactive |
| Smyd4-4 (SET and MYND domain containing, class 4, member 4) | 1 | – | – | 9037 | 4.30e5 | inactive |
| CG33460 | 1 | – | – | 7142 | 4.52e5 | inactive |
| CG12655 | 1 | – | reporter ratio raised past the hit cutoff | 5275 | 3.81e5 | inactive |
| CG5687 | 1 | – | – | 11761 | 4.40e5 | inactive |
| beat-VI (beaten path VI) | 1 | – | – | 6464 | 3.92e5 | inactive |
| beat-VI (beaten path VI) | 2 | – | – | 7035 | 3.96e5 | inactive |
| ApepP (Aminopeptidase P) | 1 | – | – | 8400 | 2.22e6 | inactive |
| CG5084 | 1 | – | – | 6135 | 4.04e5 | inactive |
| CG42561 | 1 | – | – | 6143 | 3.25e5 | inactive |
| CG17600 | 1 | – | – | 4523 | 3.66e5 | inactive |
| CG17600 | 2 | – | – | 6040 | 4.06e5 | inactive |
| CG17600 | 3 | – | – | 3823 | 3.42e5 | inactive |
